Source: US9248162B2, “Factor H for treatment of rheumatoid arthritis” (Baxter International Inc., priority 2013, dated 2016)
At least one structure is not confirmed: it was looked up by name or label, or the drawing left a doubt.

Tests used:
[1] = test system: kidney allografts in pre-sensitized recipients; assay: Renal graft function (Cr, BUN, Hct) in pre-sensitized kidney transplant model (Example 2); type: in vivo, C57BL/6 (B6) mice; settings: result in words; POD7, POD21, endpoint (FIG. 4)
[2] = test system: kidney allografts in pre-sensitized recipients; assay: Histological examination of kidney allografts (Example 2); type: in vivo, C57BL/6 (B6) mice; settings: result in words (FIG. 5)
[3] = test system: collagen antibody-induced arthritis; assay: Mouse CAIA: ankle histology scores (H & E); type: in vivo, Balb C mice; settings: result in words (Table 8, FIG. 11)
Protocol: Balb C mice (n=10 per cohort) were used to determine the efficacy of Factor H (FH) during […]. The mice were treated with ArthritoMAb (anti-collagen) antibody cocktail (2 mg, i.v.) on day 1, followed 7 days later with an injection of LPS (50 μg, i.p.). On day 8, hind paw volumes were measured for each animal and distributed to various treatment groups.
Dosing with the different agents was started on day 8 as described in Table 3.
Hind paw volumes were measured on day 8, 11, 12, 13, 15, 19 and 22 (endpoint). The age at start date was 7 to 9 weeks. Body weights were measured bi-weekly to the endpoint (Table 4). At the endpoint, tissue samples were processed for histology and submitted to a pathologist for independent analysis. Sampling 1 was performed at the endpoint. The hind limbs were preserved in 10% formalin. Sampling 2 was performed at the endpoint for group 4 animals. Blood was collected by terminal cardiac puncture. The blood was processed for anti-coagulant. The kidneys were additionally preserved in formalin and followed with 70% EtOH. Samples were scored for inflammation, pannus (granulation tissue), cartilage damage, bone resorption and exostosis (Table 5).

SMILES | renal function (Cr, BUN, Hct) [1] | histology of kidney allografts [2] | histopathology [3]
CO[C@H]1C[C@@H]2CC[C@@H](C)[C@@](O)(O2)C(=O)C(=O)N2CCCC[C@H]2C(=O)O[C@H]([C@H](C)C[C@@H]2CC[C@@H](O)[C@H](OC)C2)CC(=O)[C@H](C)/C=C(\C)[C@@H](O)[C@@H](OC)C(=O)[C@H](C)C[C@H](C)/C=C/C=C/C=C/1C [RAPA, Rapamycin] | protection of early renal function (POD7) | severe AMR and CMR | 
C[C@@H]1C[C@H]2[C@@H]3CCC4=CC(=O)C=C[C@]4(C)[C@@]3(F)[C@@H](O)C[C@]2(C)[C@@]1(O)C(=O)CO [Dexamethasone] |  |  | consistently produced an improved histopathology result
